# Source: PubChem BioAssay AID1671190 (National Center for Advancing Translational Sciences (NCATS), 2021)
# Sequences of proteins named here, by UniProt entry; tags and fusion partners are left off. A change or cut given only in a name is not applied to a line headed by its entry.
# UniProt P18054: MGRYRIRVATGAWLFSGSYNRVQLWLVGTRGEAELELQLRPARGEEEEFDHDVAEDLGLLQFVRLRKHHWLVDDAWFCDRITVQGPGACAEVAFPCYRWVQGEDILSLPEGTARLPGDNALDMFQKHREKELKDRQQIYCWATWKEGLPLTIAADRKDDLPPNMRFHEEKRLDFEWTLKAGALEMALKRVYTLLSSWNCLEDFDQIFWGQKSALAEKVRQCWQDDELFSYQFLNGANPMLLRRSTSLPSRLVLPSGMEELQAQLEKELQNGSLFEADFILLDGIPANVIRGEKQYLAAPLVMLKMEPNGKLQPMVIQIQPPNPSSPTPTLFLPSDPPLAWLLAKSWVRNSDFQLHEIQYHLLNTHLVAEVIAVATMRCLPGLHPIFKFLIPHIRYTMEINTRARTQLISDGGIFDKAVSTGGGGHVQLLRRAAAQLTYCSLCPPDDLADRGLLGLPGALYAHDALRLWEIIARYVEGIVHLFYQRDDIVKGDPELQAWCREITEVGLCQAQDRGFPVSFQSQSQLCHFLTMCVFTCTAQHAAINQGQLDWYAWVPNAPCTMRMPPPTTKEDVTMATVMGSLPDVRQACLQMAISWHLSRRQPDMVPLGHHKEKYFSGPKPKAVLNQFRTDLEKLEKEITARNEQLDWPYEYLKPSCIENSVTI
# Values joined by “and” are separate entries in the source; they are usually repeats but may differ in a detail not shown here. Equal values may be shown once. Among all 580,000 compounds or so, about 6,100 (1.1%) were called active. This list was built around the results that the source calls inconclusive (neither active nor inactive); the mix of calls is not that of the screen. Calls come from the whole dose curve; as a rule, active = well fitted inhibition curve with a large enough effect; inconclusive = small, poorly fitted or top-dose-only effect, or another doubt; inactive = no such curve, though single readings can be large or run the other way. Potencies beside an inconclusive call are fits to weak or partial responses and may not hold up.
# Target: Polyunsaturated fatty acid lipoxygenase ALOX12 (Homo sapiens) (UniProt P18054)
# Experiment: Primary qHTS assay for inhibitors of human arachidonate 12S-lipoxygenase (ALOX12): Round 2
# Conditions: purified 12hLO, xylenol orange hydroperoxide absorbance; series mostly up to 108 µM
# Procedure, shortened: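 Purified human 12hLO at 150 nM in 25 mM Hepes, 0.01% Triton X-100, pH 7.0, preincubated 15 min at room temperature with compound. Reaction started with 40 uM arachidonic acid, 30 min at room temperature. Hydroperoxide measured by Fe-xylenol orange, 573/405 nm absorbance ratio.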
# Potency is the fitted concentration of half-maximal effect.
row,SMILES,Potency
1,COc1ccc(N2CCN(CCCNC(=O)CCCn3c(=O)[nH]c4ccsc4c3=O)CC2)cc1,inactive
2,CC(Oc1cccc(Cl)c1)C(=O)OCc1nc(N)nc(N)n1 (stereo not drawn),"inconclusive: 50.1 µM [inhibitor, partial curve, poor fit]"
3,CC1=C(C(=O)NCc2ccccc2)C(c2cccs2)NC(=S)N1 (stereo not drawn),"inconclusive: 44.7 µM [inhibitor, partial curve]"
4,COc1ccc(-c2cc(OC)c3ccccc3n2)cc1,active: 44.7 µM
5,O=C(CCC(=O)OCc1ccc(C(=O)Oc2ccc(Cl)cc2)cc1)Nc1ccccc1,inactive
6,CCC(NC(=S)NC1CCCCC1)c1ccc(C(C)C)cc1 (stereo not drawn),"inconclusive: 44.7 µM [inhibitor, partial curve, poor fit]"
7,CCOc1cc(C2CC(=O)Nc3nc(SCc4ccccc4)[nH]c(=O)c32)ccc1O (stereo not drawn),"inconclusive: 112 µM [inhibitor, partial curve, poor fit]"
8,COCc1ccc2c(c1)c(OC(C)(C)C(=O)NCCCn1ccnc1)nn2CCC(C)C,inactive
9,CCc1ccc2oc(-c3ccc(NC(=O)c4cc(OC)c(OC)c(OC)c4)cc3)nc2c1,inactive
10,O=C(Nc1cccc2cccnc12)c1ccc(F)cc1,"inconclusive: 8.91 µM [inhibitor, full curve, poor fit]"
11,COc1ccccc1CNC1CCN(Cc2ccccc2)CC1,"inconclusive: 112 µM [inhibitor, single point]"
12,CN(C)CCNC(=O)c1ccc2c(c1)NC(=O)c1ccccc1S2,inactive
13,Cc1cc(=O)oc2c1c(C)nn2-c1nn[nH]n1,"inconclusive: 22.4 µM [inhibitor, partial curve, poor fit]"
14,CCn1c(COc2ccc(Cl)cc2)nnc1SCC(=O)C(C)(C)C,inactive
15,CCc1ccc(CNC(=O)CCCN2C(=O)c3cccnc3Oc3ccc(Cl)cc32)cc1,"inconclusive: 112 µM [inhibitor, partial curve, poor fit]"
16,O=C(N/N=C/C1CC2CCC1C2)C12CC3CC(CC(C3)C1)C2 (stereo not drawn),inactive
17,Cc1ccsc1C(=O)NNC(=O)c1ccc(NS(=O)(=O)c2cccs2)cc1,inactive
18,Cc1cccc(NC(=O)c2ncoc2-c2cccc(Cl)c2)c1C,inactive
19,Cc1ccc(NS(=O)(=O)c2ccc(N/N=C3/CCSC3)c([N+](=O)[O-])c2)c(C)c1,"inconclusive: 50.1 µM [inhibitor, partial curve, poor fit]"
20,Cc1ccnc(NC(c2ccccc2O)c2oc(CO)cc(=O)c2O)c1 (stereo not drawn),"inconclusive: 39.8 µM [inhibitor, partial curve, poor fit]"
21,COc1ccc(C(=O)N2CCCC3(CC(c4cccc(C(F)(F)F)c4)=NO3)C2)cc1 (stereo not drawn),"inconclusive: 15.8 µM [inhibitor, full curve, poor fit]"
22,CC(=O)c1ccc(NC(=O)COC(=O)c2c[nH]c3ccccc23)cc1,inactive
23,NC(=O)C1=C[C@@H](c2coc3ccccc3c2=O)C[C@@H](OCCCCO)O1,inactive

# Ordered by heavy-atom count (descending): 3 of the compounds above.
row,SMILES,Potency
1,COc1ccc(N2CCN(CCCNC(=O)CCCn3c(=O)[nH]c4ccsc4c3=O)CC2)cc1,inactive
8,COCc1ccc2c(c1)c(OC(C)(C)C(=O)NCCCn1ccnc1)nn2CCC(C)C,inactive
11,COc1ccccc1CNC1CCN(Cc2ccccc2)CC1,"inconclusive: 112 µM [inhibitor, single point]"

# More entries.

row,SMILES,Potency
1,CCNC(=O)c1cc(-c2cccs2)nc2ccccc12,inactive
2,CCOC(=O)c1c(C)oc2c1c1c(c3ccccc32)OCN(CCCC(=O)O)C1,"inconclusive: 3.98 µM [inhibitor, full curve, poor fit]"
3,N#Cc1ccccc1OCC(=O)NC(=O)NCc1ccccc1,"inconclusive: 562 nM [inhibitor, full curve, poor fit] and inconclusive: 50.1 µM [inhibitor, single point]"
4,O=C(Nc1ccc2ncccc2c1)c1ccccc1Cl,active: 44.7 µM
5,O=C(CN1CCCCC1)N1CCc2ccccc21,"inconclusive: 100 µM [inhibitor, single point]"
6,c1ccc(COc2ccc3cc[nH]c3c2)cc1,"inconclusive: 35.5 µM [inhibitor, partial curve, poor fit]"
7,CC(C(=O)Nc1cccc(Cl)c1)N1CCN(c2ccc([N+](=O)[O-])c3cnccc23)CC1 (stereo not drawn),"inconclusive: 50.1 µM [inhibitor, partial curve, poor fit]"
8,CCOC(=O)C1=C(c2ccccc2)N=c2s/c(=C\c3cccc(O)c3)c(=O)n2C1c1cccs1 (stereo not drawn),"inconclusive: 0.398 µM [inhibitor, full curve]"
9,Cc1[nH]c2ccccc2c1C(=O)C(C)OC(=O)c1ccccc1F (stereo not drawn),inactive
10,COc1ccc(NS(=O)(=O)c2csc(C(=O)Nc3ccccc3)c2)cc1,"inconclusive: 44.7 µM [inhibitor, partial curve, poor fit]"
11,COC(=O)C1=C(C)N(C)C(=NCc2ccc(C(F)(F)F)cc2)NC1c1ccc(F)cc1 (stereo not drawn),"inconclusive: 44.7 µM [inhibitor, partial curve, poor fit]"
12,Cc1c(-c2ccnc3cc(C(=O)O)nn23)cnn1C,"inconclusive: 126 µM [inhibitor, partial curve, poor fit]"
13,Cc1ccsc1C(=O)N1CCC2(CC1)NC(=O)N(c1ccccc1)N2,active: 7.08 µM
14,O=Cc1c(-c2cccc(Br)c2)[nH]c2ccccc12,inactive
15,O=C(CN1CCN(c2ncccn2)CC1)Nc1ccccc1-n1cccc1,"inconclusive: 1.58 µM [inhibitor, full curve, poor fit]"
16,NC(=O)c1ccc(N2CCCCC2)c(N2C(=O)C3CC=CCC3C2=O)c1 (stereo not drawn),inactive
17,Cc1nn(-c2ccccc2)c(C)c1/C=N/Nc1nc2ccccc2[nH]1,"inconclusive: 79.4 µM [inhibitor, single point]"
18,Cc1ccc(C(=O)N2CCN(c3ccc([N+](=O)[O-])c(N4CCOCC4)c3)CC2)cc1,"inconclusive: 50.1 µM [inhibitor, partial curve, poor fit]"
19,O=C(NCC(c1ccco1)N1CCc2ccccc2C1)c1ccc(Br)cc1 (stereo not drawn),active: 11.2 µM
20,CC(C)(C)c1cc(OS(C)(=O)=O)ccc1O,"inconclusive: 31.6 µM [inhibitor, partial curve, poor fit]"
21,COc1ccc(N2CCN(C(=O)Cn3c(-c4cccc(Cl)c4)nc(C)c(CCO)c3=O)CC2)cc1,"inconclusive: 31.6 µM [inhibitor, partial curve]"
22,O=S(=O)(Nc1nc2ccccc2nc1NCc1ccco1)c1ccc(Cl)cc1,inactive
23,Cc1nc([C@@H]2CN(S(=O)(=O)c3ccc(C#N)cc3)C[C@H]2C(N)=O)n[nH]1,"inconclusive: 89.1 µM [inhibitor, single point]"

row,SMILES,Potency
1,CC(C)c1cc(-c2nc(-c3ccccc3)no2)n[nH]1,inactive
2,O=C1CCN(CCc2ccccc2)CCN1[C@H](CSc1ccc(Br)cc1)c1ccccc1,"inconclusive: 10 µM [inhibitor, full curve, poor fit]"
3,COCCCNC(=S)Nc1ccc(C)cc1[N+](=O)[O-],"inconclusive: 79.4 µM [inhibitor, partial curve, poor fit]"
4,C/C(=N/NC(=S)NC1CCCCC1)c1ccc(C)cc1,"inconclusive: 44.7 µM [inhibitor, partial curve, poor fit]"
5,O=C(NC(=S)Nc1c(Cl)ccc2nsnc12)c1ccccc1F,"inconclusive: 28.2 µM [inhibitor, partial curve, poor fit]"
6,COc1ccc(-c2ocnc2C(=O)Nc2cccc(Cl)c2)cc1,"inconclusive: 44.7 µM [inhibitor, partial curve, poor fit]"
7,Cc1ccc2nc(-c3cccnc3)cc(C(=O)Nc3ccccc3[N+](=O)[O-])c2c1,"inconclusive: 112 µM [inhibitor, single point]"
8,O=C1CCCN1CCCN1C(=O)[C@@H]2C[C@@H](O)CN2C2(CN(Cc3ccoc3)C2)C1=O,"inconclusive: 35.5 µM [inhibitor, single point]"
9,COc1ccc(C2C(C#N)=C(C)NC(C)=C2C(=O)OC(C)C)c(OC)c1 (stereo not drawn),"inconclusive: 35.5 µM [inhibitor, single point]"
10,COC(=O)C1=C(C)N(Cc2ccccc2F)C(=O)CC1c1ccc(F)cc1F (stereo not drawn),"inconclusive: 20 µM [inhibitor, full curve]"
11,CC(=O)N1CCOc2ccc(S(=O)(=O)N3CCC(C(=O)Nc4ccc(C)cc4)CC3)cc21,inactive
12,COc1ccc(C(=O)Nc2nc(-c3ccc(Br)s3)ns2)cc1,inactive
13,CC1(C(=O)NS(=O)(=O)c2ccc(Cl)cc2)CCN1C(=O)CCc1cccs1 (stereo not drawn),"inconclusive: 56.2 µM [inhibitor, partial curve, poor fit]"
14,S=C(NCCc1ccccc1)N/N=C/c1cccc(Br)c1,"inconclusive: 39.8 µM [inhibitor, partial curve, poor fit]"
15,O=C(O)C1CCC(=O)N1Cc1ccc(F)cc1 (stereo not drawn),inactive
16,Cc1cccc(-c2nnc3n2N=C(c2ccccc2Br)CS3)c1,inactive
17,Cc1ccc(C(C(=O)NC2CCCC2)N2CCc3ccccc32)cc1 (stereo not drawn),"inconclusive: 39.8 µM [inhibitor, partial curve, poor fit]"
18,CCc1ccc2c(c1)[C@]1(C(=O)N2)[C@@H]2C(=O)N(Cc3ccccc3)C(=O)[C@@H]2[C@@H]2CCCN21,"inconclusive: 70.8 µM [inhibitor, single point]"
19,CCc1nnc(NC(=O)COc2ccc3ccccc3c2)s1,inactive
20,Fc1ccc(CN2CCC(Cc3ccccc3)CC2)cc1F,"inconclusive: 1.78 µM [inhibitor, full curve, poor fit]"
21,Cc1ccc(CN2CCN(c3ncccn3)CC2)c(C)c1,"inconclusive: 0.708 µM [inhibitor, full curve]"
22,COc1ccc(OCc2nnc(SCC(=O)N3c4ccccc4Sc4ccc(Cl)cc43)o2)cc1,inactive

# Filtered by structure: the compounds so far with an NH in an aromatic ring (10)
row,SMILES,Potency
1,COc1ccc(N2CCN(CCCNC(=O)CCCn3c(=O)[nH]c4ccsc4c3=O)CC2)cc1,inactive
7,CCOc1cc(C2CC(=O)Nc3nc(SCc4ccccc4)[nH]c(=O)c32)ccc1O (stereo not drawn),"inconclusive: 112 µM [inhibitor, partial curve, poor fit]"
13,Cc1cc(=O)oc2c1c(C)nn2-c1nn[nH]n1,"inconclusive: 22.4 µM [inhibitor, partial curve, poor fit]"
22,CC(=O)c1ccc(NC(=O)COC(=O)c2c[nH]c3ccccc23)cc1,inactive
6,c1ccc(COc2ccc3cc[nH]c3c2)cc1,"inconclusive: 35.5 µM [inhibitor, partial curve, poor fit]"
9,Cc1[nH]c2ccccc2c1C(=O)C(C)OC(=O)c1ccccc1F (stereo not drawn),inactive
14,O=Cc1c(-c2cccc(Br)c2)[nH]c2ccccc12,inactive
17,Cc1nn(-c2ccccc2)c(C)c1/C=N/Nc1nc2ccccc2[nH]1,"inconclusive: 79.4 µM [inhibitor, single point]"
23,Cc1nc([C@@H]2CN(S(=O)(=O)c3ccc(C#N)cc3)C[C@H]2C(N)=O)n[nH]1,"inconclusive: 89.1 µM [inhibitor, single point]"
1,CC(C)c1cc(-c2nc(-c3ccccc3)no2)n[nH]1,inactive
